The list shows only some results of the screen, not a fair sample: its compounds were picked by chemical class. Not every dose and run of a compound is shown. T/C is the treated group as % of the vehicle group. Some doses have a count of surviving animals in place of a T/C: the source files T/C as zero there, which appears to mark a toxic dose or a test without result, not a measured value. Some doses without a T/C left all or most animals alive at the check, yet need not have been tolerated: the source hardly ever lists a survival T/C far under the control, and the zero likely stands for such cases as well. Counts of survivors are from the toxicity check (mostly the fifth day) where no day follows; animals may have died later. Schedule codes are those of the source, taken here to give the interval after Q, in days (D) or hours (H), and the number of doses after X. Some schedule codes hold Z or #, which are not explained here. Some entries were tested several times; the values are given in rising order. For survival time, this PubChem deposit counts one and a half times the control or more as active, and values a quarter to a half above the control carry no call in these data; other NCI protocols may use other cut-offs. Some T/C values are marked as having no survivor count here; that says nothing about deaths at the dose. Some T/C values are followed by the survivors on the day toxicity was checked, most often the fifth; where neither a count nor a note follows, no animal had died by that day.
Tested on: L1210 leukemia ip in BDF1 mice, survival T/C
Experiment: NCI In Vivo Anticancer Drug Screen. Data for tumor model L1210 Leukemia (intraperitoneal) in B6D2F1 (BDF1) mice
Conditions: T/C endpoint: mean survival time, higher T/C = longer survival
[1] = dose: 50.0 mg/kg/injection, schedule: Q04DX003 (ip), vehicle: Klucel (hydroxypropylcellulose) (HPC)
[2] = dose: 100.0 mg/kg/injection, schedule: Q04DX003 (ip), vehicle: Klucel (hydroxypropylcellulose) (HPC)
[3] = dose: 200.0 mg/kg/injection, schedule: Q04DX003 (ip), vehicle: Klucel (hydroxypropylcellulose) (HPC)
[4] = dose: 50.0 mg/kg/injection, schedule: Q01DX001 (ip), vehicle: saline
[5] = dose: 100.0 mg/kg/injection, schedule: Q01DX001 (ip), vehicle: saline
[6] = dose: 200.0 mg/kg/injection, schedule: Q01DX001 (ip), vehicle: saline
[7] = dose: 400.0 mg/kg/injection, schedule: Q01DX001 (ip), vehicle: saline
[8] = dose: 100.0 mg/kg/injection, schedule: Q01DX009 (ip), vehicle: saline with Tween-80
[9] = dose: 200.0 mg/kg/injection, schedule: Q01DX009 (ip), vehicle: saline with Tween-80

## CN(CN(CN(CCl)[N+](=O)[O-])[N+](=O)[O-])[N+](=O)[O-]
[1]
  T/C: 107 % of control [survivor count not shown]
[2]
  T/C: 97 % of control [survivor count not shown]
[3]
  T/C: 105 % of control [survivor count not shown]

## O=C(Nc1cc(F)c([N+](=O)[O-])cc1[N+](=O)[O-])c1cc([N+](=O)[O-])cc([N+](=O)[O-])c1
dose: 6.25 mg/kg/injection, schedule: Q01DX009 (ip), vehicle: Klucel (hydroxypropylcellulose) (HPC)
  T/C: 98 % of control
dose: 12.5 mg/kg/injection, schedule: Q01DX009 (ip), vehicle: Klucel (hydroxypropylcellulose) (HPC)
  T/C: 99 % of control
dose: 25.0 mg/kg/injection, schedule: Q01DX009 (ip), vehicle: Klucel (hydroxypropylcellulose) (HPC)
  T/C: 99 % of control

## CCNP(=O)(O)N(CCCl)CCCl.NC1CCCCC1
dose: 10.0 mg/kg/injection, schedule: Q01DX Z (ip), vehicle: saline
  T/C: 109 % of control
dose: 30.0 mg/kg/injection, schedule: Q01DX Z (ip), vehicle: saline
  T/C: 129 % of control
dose: 100.0 mg/kg/injection, schedule: Q01DX Z (ip), vehicle: saline
  T/C: 157 % of control
dose: 300.0 mg/kg/injection, schedule: Q01DX Z (ip), vehicle: saline
  survivor count: 6 of 6

## Cn1/c(=N/Nc2c([N+](=O)[O-])cc([N+](=O)[O-])cc2[N+](=O)[O-])sc2ccccc21
dose: 100.0 mg/kg/injection, schedule: Q01DX009 (ip), vehicle: saline
  T/C: 96 % of control [survivor count not shown]
dose: 200.0 mg/kg/injection, schedule: Q01DX009 (ip), vehicle: saline
  T/C: 98 % of control [survivor count not shown]
dose: 400.0 mg/kg/injection, schedule: Q01DX009 (ip), vehicle: saline
  T/C: 98 % of control [survivor count not shown]

## C=CCCC[P+](CC)(c1ccccc1)c1ccccc1.F[P-](F)(F)(F)(F)F
dose: 6.25 mg/kg/injection, schedule: Q04DX003 (ip), vehicle: Klucel (hydroxypropylcellulose) (HPC)
  T/C: 101 % of control
dose: 12.5 mg/kg/injection, schedule: Q04DX003 (ip), vehicle: Klucel (hydroxypropylcellulose) (HPC)
  T/C: 91 % of control
dose: 25.0 mg/kg/injection, schedule: Q04DX003 (ip), vehicle: Klucel (hydroxypropylcellulose) (HPC)
  survivor count: 3 of 6
[1]
  survivor count: 0 of 6 and 1 of 6
[2]
  survivor count: 0 of 6
[3]
  survivor count: 0 of 6
dose: 400.0 mg/kg/injection, schedule: Q04DX003 (ip), vehicle: Klucel (hydroxypropylcellulose) (HPC)
  survivor count: 0 of 6

## COc1cc(CNCCCl)cc(OC)c1OC
[4]
  T/C: 119 % of control
[5]
  T/C: 107 % of control
[6]
  T/C: 104 % of control
[7]
  T/C: 104 % of control

## Cc1c([N+](=O)[O-])c(C)c([N+](=O)[O-])c(C2CCCC2)c1[N+](=O)[O-]
dose: 50.0 mg/kg/injection, schedule: Q01DX009 (ip), vehicle: saline with Tween-80
  T/C: 97 % of control [survivor count not shown]
[8]
  T/C: 97 % of control [survivor count not shown]
[9]
  T/C: 101 % of control [survivor count not shown]

## CCOC(=O)NNC(=O)NP(=O)(NC(=O)NOC)NC(=O)OCC (centres undefined)
[5]
  T/C: 106 % of control
[6]
  T/C: 95 % of control
[7]
  T/C: 95 % of control

## CONC(=O)NP(=O)(NC(=O)NOC)NC(=O)NOC
[4]
  T/C: 105 % of control
dose: 100.0 mg/kg/injection, schedule: Q01DX001 (ip), vehicle: saline, evaluated on day 30
  T/C: 98 % of control
dose: 100.0 mg/kg/injection, schedule: Q01DX001 (ip), vehicle: saline, run until all animals had died
  T/C: 121 % of control
dose: 200.0 mg/kg/injection, schedule: Q01DX001 (ip), vehicle: saline, evaluated on day 30
  T/C: 96 % of control
dose: 200.0 mg/kg/injection, schedule: Q01DX001 (ip), vehicle: saline, run until all animals had died
  T/C: 96 % of control
dose: 400.0 mg/kg/injection, schedule: Q01DX001 (ip), vehicle: saline, evaluated on day 30
  T/C: 93 % of control
dose: 400.0 mg/kg/injection, schedule: Q01DX001 (ip), vehicle: saline, run until all animals had died
  T/C: 100 % of control

## COC(=O)C1(C)COP(=O)(NCc2ccccc2)OC1 (centres undefined)
[5]
  T/C: 94 % of control
[6]
  survivor count: 4 of 4
[7]
  T/C: 89 % of control

## CCN(CCCl)CCOc1ccc(Cl)cc1
dose: 5.0 mg/kg/injection, schedule: Q04DX002 (ip), vehicle: saline
  T/C: 89 % of control
dose: 10.0 mg/kg/injection, schedule: Q04DX002 (ip), vehicle: saline
  T/C: 107 % of control
dose: 20.0 mg/kg/injection, schedule: Q04DX002 (ip), vehicle: saline
  T/C: 97 and 100 % of control
dose: 40.0 mg/kg/injection, schedule: Q04DX002 (ip), vehicle: saline
  survivor count: 2 of 3
dose: 80.0 mg/kg/injection, schedule: Q04DX002 (ip), vehicle: saline
  survivor count: 0 of 3
dose: 100.0 mg/kg/injection, schedule: Q04DX002 (ip), vehicle: saline
  survivor count: 2 of 3
dose: 200.0 mg/kg/injection, schedule: Q04DX002 (ip), vehicle: saline
  survivor count: 0 of 3
dose: 400.0 mg/kg/injection, schedule: Q04DX002 (ip), vehicle: saline
  survivor count: 0 of 3

## Nc1ncnc2sc(SCCCl)nc12
[8]
  T/C: 93 % of control
[9]
  T/C: 95 % of control
dose: 400.0 mg/kg/injection, schedule: Q01DX009 (ip), vehicle: saline with Tween-80
  survivor count: 2 of 6

## N#CCCN[N+](=O)[O-]
[5]
  T/C: 95 % of control [survivor count not shown]
dose: 100.0 mg/kg/injection, schedule: Q04DX003 (ip), vehicle: saline
  T/C: 105 % of control [survivor count not shown]
[6]
  T/C: 88 % of control [survivor count not shown]
dose: 200.0 mg/kg/injection, schedule: Q04DX003 (ip), vehicle: saline
  T/C: 101 % of control [survivor count not shown]
[7]
  T/C: 100 % of control [survivor count not shown]
dose: 400.0 mg/kg/injection, schedule: Q04DX003 (ip), vehicle: saline
  T/C: 108 % of control [survivor count not shown]

## O=C(O)CCc1ccc(N(CCCl)CCCl)cc1
dose: 2.0 mg/kg/injection, schedule: Q01DX015 (ip), vehicle: saline
  T/C: 97 % of control
dose: 4.0 mg/kg/injection, schedule: Q01DX015 (ip), vehicle: saline
  T/C: 103 % of control
dose: 8.0 mg/kg/injection, schedule: Q01DX015 (ip), vehicle: saline
  T/C: 114 % of control
dose: 16.0 mg/kg/injection, schedule: Q01DX015 (ip), vehicle: saline
  T/C: 110 % of control

## O=C(Nc1ccc([N+](=O)[O-])cn1)NP(=O)(Nc1ccccc1)Nc1ccccc1
dose: 50.0 mg/kg/injection, schedule: Q01DX001 (ip), vehicle: carboxymethylcellulose (CMC)
  T/C: 95 % of control
dose: 100.0 mg/kg/injection, schedule: Q01DX001 (ip), vehicle: carboxymethylcellulose (CMC)
  T/C: 95 % of control
dose: 200.0 mg/kg/injection, schedule: Q01DX001 (ip), vehicle: carboxymethylcellulose (CMC)
  T/C: 95 % of control
dose: 400.0 mg/kg/injection, schedule: Q01DX001 (ip), vehicle: carboxymethylcellulose (CMC)
  survivor count: 1 of 4

## CCP(=O)(Nc1cccc(C(F)(F)F)c1)Nc1cccc(C(F)(F)F)c1
dose: 100.0 mg/kg/injection, schedule: Q01DX009 (ip), vehicle: Klucel (hydroxypropylcellulose) (HPC)
  T/C: 96 % of control [survivor count not shown]
dose: 200.0 mg/kg/injection, schedule: Q01DX009 (ip), vehicle: Klucel (hydroxypropylcellulose) (HPC)
  T/C: 101 % of control [survivor count not shown]
dose: 400.0 mg/kg/injection, schedule: Q01DX009 (ip), vehicle: Klucel (hydroxypropylcellulose) (HPC)
  T/C: 91 % of control [survivor count not shown]

## NP(=O)(Oc1ccccc1)N(CCCl)CCCl (centres undefined)
dose: 40.0 mg/kg/injection, schedule: Q01DX010 (ip), vehicle: water
  T/C: 96 % of control
dose: 80.0 mg/kg/injection, schedule: Q01DX010 (ip), vehicle: water
  T/C: 96 % of control
dose: 160.0 mg/kg/injection, schedule: Q01DX009 (ip), vehicle: water
  T/C: 94 % of control
dose: 200.0 mg/kg/injection, schedule: Q01DX009 (ip), vehicle: water
  T/C: 96 % of control
dose: 250.0 mg/kg/injection, schedule: Q01DX Z (ip), vehicle: water
  T/C: 96 % of control
dose: 500.0 mg/kg/injection, schedule: Q01DX Z (ip), vehicle: water
  T/C: 91 % of control [5 of 6 alive]

Source: PubChem BioAssay AID248 (DTP/NCI, 2004)
